Taken from: PubChem BioAssay AID686937 (Drosophila RNAi Screening Center, 2013)

Screen: 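Knock-downs that reduce output of a secreted reporter enzyme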 (primary screen)
System: Drosophila S2 cells expressing secreted horseradish peroxidase
Knock-down reagent: long dsRNA against Drosophila genes
Duration: about 5.5 days (5 days dsRNA, then 12 h reporter induction)
Treatment: reporter expression induced after 5 days of dsRNA, read 12 h later; inducer not stated
Detection: 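Chemiluminescent measurement of peroxidase in the medium 12 h after reporter induction, following 5 days of dsRNA, given as a z-score per plate; higher means more secretion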
Direction: z-score: higher = more reporter secreted into medium
In all, the deposit lists about 23,000 reagents; this is a random part of those with a known target gene and a result. 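Reduced-secretion tags in replicate 1 do not always agree with the z-scores; no criterion for assigning the tags was given.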 A plus sign joins genes that one reagent is predicted to hit. Not all columns of the deposit are shown. The record does not give: the amount of reagent.

| predicted target | dsRNA | z-score, replicate 1 |
| --- | --- | --- |
| CG7600 | DRSC09681 | -0.41 |
| Lam | DRSC03359 | -1.35 |
| kipf | DRSC15446 | -2.87 |
| kipf | DRSC22871 | 0.26 |
| slo | DRSC13685 | -0.36 |
| slo | DRSC17057 | 0.51 |
| slo | DRSC21896 | 0.35 |
| spag4 | DRSC02973 | 0.45 |
| CG3955 | DRSC06859 | 0.13 |
| CG13972 | DRSC14715 | 0.58 |
| CG32631 | DRSC19768 | 0.49 |
| yellow-g | DRSC08575 | 0.16 |
| Bap170 | DRSC04964 | 0.06 |
| Bap170 | DRSC21826 | 0.02 |
| MagR | DRSC20092 | -0.23 |
| CG14024 | DRSC00868 | 0.36 |
| CG14024 | DRSC02354 | 0.13 |
| Jhbp4 | DRSC14222 | 0.3 |
| Sec22 + CG13358 | DRSC18538 | -1.09 |
| CG18508 | DRSC18155 | 0.31 |
| CG12995 | DRSC19515 | 0.28 |
| CG14153 | DRSC10155 | 0.33 |
| CG14153 | DRSC22595 | -0.2 |
| Arp2 | DRSC19332 | -0.1 |
| Tak1 | DRSC20390 | 0.36 |
| Tak1 | DRSC20561 | -0.23 |
| Tak1 | DRSC20562 | 0.6 |
| CG42269 | DRSC10670 | 0.13 |
| CG42269 | DRSC10672 | 0.38 |
| Vm26Ac | DRSC02329 | 0.21 |
| MFS15 | DRSC06523 | 0.21 |
| sgl | DRSC21431 | 0 |
| Sk2 | DRSC08556 | 0.19 |
| CG4957 | DRSC02793 | -0.71 |
| CG14183 | DRSC10182 | 0.46 |
| Ced-12 | DRSC02840 | 0.57 |
| CG11791 | DRSC14391 | 0.08 |
| Eip74EF | DRSC10613 | -1.93 |
| Eip74EF | DRSC11160 | 0.45 |
| l(2)k10201 | DRSC06439 | 0.25 |
| l(2)k10201 | DRSC07640 | 0.28 |
| CG13751 | DRSC06422 | 0.3 |
| CG14830 | DRSC08876 | 0.37 |
| ATP6AP2 | DRSC16420 | -0.87 |
| CG30286 | DRSC04070 | 0.02 |
| RpL10Ab | DRSC10798 | -5 |
| polybromo | DRSC14307 | -0.25 |
| GstE3 | DRSC06673 | 0.26 |
| Pstk + Tim9b | DRSC19504 | 0.34 |
| Pstk + Tim9b | DRSC20292 | 0.52 |
| CG32079 | DRSC22636 | -0.04 |
| CG10508 | DRSC11612 | -0.03 |
| CG10508 | DRSC11613 | 0.36 |
| CG4364 | DRSC02742 | 0.06 |
| Orc6 | DRSC07497 | 0.11 |
| Pfdn4 | DRSC09761 | 0.28 |
| CG32806 | DRSC21699 | 0.18 |
| mib2 | DRSC02623 | 0.18 |
| LManVI | DRSC03224 | -0.68 |
| Usp2 | DRSC20590 | 0.3 |
| Usp2 | DRSC20632 | 0.41 |
| Usp2 | DRSC20633 | -0.34 |
| Ptip | DRSC10660 | 0.12 |
| Ptip | DRSC11048 | -0.64 |
| CG10321 | DRSC04061 | -0.11 |
| CG10194 | DRSC02025 | 0.27 |
| SerRS | DRSC00496 | -0.34 |
| CG5023 | DRSC15697 | 0.22 |
| CG34433 | DRSC15077 | 0.17 |
| Doa | DRSC13892 | -0.24 |
| Doa | DRSC13893 | 0.15 |
| Doa | DRSC13895 | 0.33 |
| Doa | DRSC13896 | 0.19 |
| Doa | DRSC13897 | 0.51 |
| Doa | DRSC16650 | -1.85 |
| CG34217 | DRSC05083 | -0.17 |
| Gr98c | DRSC22212 | -1.12 |
| UK114 | DRSC01973 | 0.16 |
| SMSr | DRSC10998 | 0.29 |
| SMSr | DRSC10999 | 0.19 |
| CG18234 | DRSC10309 | 0.02 |
| Pten | DRSC03402 | 0.32 |
